Laboratory results reported in publication PMC7819943, “Rice protein-binding microarrays: a tool to detect cis-acting elements near promoter regions in rice”.
This is one part of the list.

Target: T1, OsSMF1 (Oryza sativa, UniProt Q6ZLB0 1-436)
T1 sequence: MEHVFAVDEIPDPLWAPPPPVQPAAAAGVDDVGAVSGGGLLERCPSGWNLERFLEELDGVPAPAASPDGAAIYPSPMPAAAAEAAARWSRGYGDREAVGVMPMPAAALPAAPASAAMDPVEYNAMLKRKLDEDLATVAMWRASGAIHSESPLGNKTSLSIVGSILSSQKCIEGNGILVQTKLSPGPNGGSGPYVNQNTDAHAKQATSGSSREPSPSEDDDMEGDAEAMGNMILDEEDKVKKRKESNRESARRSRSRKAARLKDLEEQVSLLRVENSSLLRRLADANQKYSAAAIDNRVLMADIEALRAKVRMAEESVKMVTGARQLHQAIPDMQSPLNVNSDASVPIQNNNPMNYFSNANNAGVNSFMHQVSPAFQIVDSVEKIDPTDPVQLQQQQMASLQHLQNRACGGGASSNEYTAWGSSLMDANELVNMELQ
Assay: protein-binding microarray (RPBM); PBS, 2% BSA, 51.3 ng/ul salmon testes DNA, 50 uM zinc acetate, 200 nM TF, 25 C, 1 h; high values mean tight binding
Settings: protein: recombinant; tags: N-terminal polyhistidine and DsRed monomer fusion (pET32a); chain copies: 2; label: CyDye5-dUTP incorporated in the synthesized complementary strand; 3' TTTTT single-stranded linker to array surface; dsDNA, one strand shown
Summary of the method: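 A custom Agilent array was converted to double-stranded form by primer extension with Cy5-dUTP and blocked with 2% BSA. Protein at 200 nM in PBS with 2% BSA, salmon testes DNA and 50 µM zinc acetate was applied for 1 h at 25 °C, followed by washing. The proteins were polyhistidine–DsRed N-terminal fusions of transcription factors, expressed in E. coli BL21-CodonPlus and Ni–NTA-purified. The binding signal is per-feature fluorescence intensity (arbitrary units) from an Axon 4000B scanner.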

| Sequence | binding signal |
| --- | --- |
| GAGGAGAGGGGAGGGGAACCCAAGCAAGCAATCAGCGTGGCGGAGTCACCTAGTGCAG | 3700 fluorescence intensity (a.u.) |
| TTACTCTAATCAGGAGGTTTATTCCTCTTCGTGGATCGAGCGGAGTCACCTAGTGCAG | 28100 fluorescence intensity (a.u.) |
| GTGCGGGATCCAGTCAGCACCGCCGCCCTCCCGCCCGGTTCGGAGTCACCTAGTGCAG | 7160 fluorescence intensity (a.u.) |
| TATATATATATATATATATGTATGTATGTATGTATGTATGCGGAGTCACCTAGTGCAG | 3160 fluorescence intensity (a.u.) |
| GCATTGACATTAGCCACGAAAGCAACAAGGGATCCTTTGTCGGAGTCACCTAGTGCAG | 3290 fluorescence intensity (a.u.) |
| CTCACATGACTCATGTTAAGAGAGCACATATGTTTCTCTGCGGAGTCACCTAGTGCAG | 4600 fluorescence intensity (a.u.) |
| TTTTCGAGCTCTTCCAACGTCACACCTCTTATCATTTTGACGGAGTCACCTAGTGCAG | 5300 fluorescence intensity (a.u.) |
| CGTGTACGTATTAATCGTATACGTGTACGTCGGTGTCCTGCGGAGTCACCTAGTGCAG | 9780 fluorescence intensity (a.u.) |
| TTTGTCGAACAGCTAACACGTACGATGAGCGGCTCGCCGGCGGAGTCACCTAGTGCAG | 3160 fluorescence intensity (a.u.) |
| ATTGGTTCTGACGTAGATAAATACCTACAACCTTAACCCTCGGAGTCACCTAGTGCAG | 4570 fluorescence intensity (a.u.) |
| AGTTTGGTGAAATCGATAGTATACACCTTGCTAGGAACATCGGAGTCACCTAGTGCAG | 3770 fluorescence intensity (a.u.) |
| GCCCACGCTCACCGACTCCATCGACGTCACGCTCACCGCCCGGAGTCACCTAGTGCAG | 5090 fluorescence intensity (a.u.) |
| ATTTTAGCGCCAATGCACCATGTCAGACCATTCAATTGTGCGGAGTCACCTAGTGCAG | 3610 fluorescence intensity (a.u.) |
| TTTTACGTATTCTTTGAGGGATTCCAAGAGCTGTCTCTCTCGGAGTCACCTAGTGCAG | 3300 fluorescence intensity (a.u.) |
| TAGGTGTGCTGGAAGTGGGAGTGGGTAGGTATTCTTGTTTCGGAGTCACCTAGTGCAG | 4310 fluorescence intensity (a.u.) |
| TGAGGTTGGGGTTGTGGCGCGGGACGAAGGCGGAGGACTCCGGAGTCACCTAGTGCAG | 3460 fluorescence intensity (a.u.) |
| TTTTGATCCCGGATTTGGCCTACGTGGTGGCTGAGTTAGCCGGAGTCACCTAGTGCAG | 7060 fluorescence intensity (a.u.) |
| TTATACATGCTCACGTGGCTATGTCATTGCCCTGGGTGGGCGGAGTCACCTAGTGCAG | 12000 fluorescence intensity (a.u.) |
| AAACATTTAGACCATAAAACCTATGTTTATGTGTCACACGCGGAGTCACCTAGTGCAG | 4000 fluorescence intensity (a.u.) |
| GCCCGGCTGACCATGCATGACCCTCGTCGGCCTCCTCGCGCGGAGTCACCTAGTGCAG | 4190 fluorescence intensity (a.u.) |
| AGGTAAAAGGGCAAATATCTAATTTCCCATTATTTGTTTGCGGAGTCACCTAGTGCAG | 3560 fluorescence intensity (a.u.) |

| Sequence | binding signal |
| --- | --- |
| ACAGGTAGCTCCATATCTTGTTCATATTGACATACACAATCGGAGTCACCTAGTGCAG | 31500 fluorescence intensity (a.u.) |
| CGCCAAGCGCATTGGCGCTGAGGTTGGCCGTGTCAGCGCCCGGAGTCACCTAGTGCAG | 6150 fluorescence intensity (a.u.) |
| GACAACCCTAAACGCCGTTCTTATAGTGTTGACTCAGCGTCGGAGTCACCTAGTGCAG | 8300 fluorescence intensity (a.u.) |
| CTGAAATTAATAGATCTAGTGGTACACGCGGCTTGCATGACGGAGTCACCTAGTGCAG | 3860 fluorescence intensity (a.u.) |
| ATACACACATATCCGCGCCATTATAAATTTGACAGCATTTCGGAGTCACCTAGTGCAG | 3440 fluorescence intensity (a.u.) |
| GAGGACAGGCGGTGACCGGCTGACCGCGGACATGACGCACCGGAGTCACCTAGTGCAG | 5230 fluorescence intensity (a.u.) |
| CGGTTTGTGCGGCAAGACGTGGCTTAACCTGTGCGTGTGTCGGAGTCACCTAGTGCAG | 4240 fluorescence intensity (a.u.) |
| ACCGCCCAGCCGCCGCACGTGGTCGAATCGGCCTCCGTGTCGGAGTCACCTAGTGCAG | 3890 fluorescence intensity (a.u.) |
| AACCCTGGGTTTCCGTGTCTAACGTTTGACCGTCCGCCTTCGGAGTCACCTAGTGCAG | 3440 fluorescence intensity (a.u.) |
| CCCACCCACCCACTGCATTCATCTCTCCTCTCTATCTCTTCGGAGTCACCTAGTGCAG | 3250 fluorescence intensity (a.u.) |
| TTCATCTTTATCAACAAACGAACGCCACCTCAATATCTATCGGAGTCACCTAGTGCAG | 4270 fluorescence intensity (a.u.) |
| GGAACAGGTCGCCGCAGGGGCACGGGTACGTGTACGCCCCCGGAGTCACCTAGTGCAG | 3310 fluorescence intensity (a.u.) |
| CCTCAAAATTGCAGGGGCGGAGATGGGGATGGTAGTTTACCGGAGTCACCTAGTGCAG | 3330 fluorescence intensity (a.u.) |
| GATCTGTAGCCAGCTGCAGCACGAGCTCTAATAAACCATGCGGAGTCACCTAGTGCAG | 7100 fluorescence intensity (a.u.) |
| GGCCTGCACGGTGGCGTCGTAGCGTGGCCTGTCCCACTTGCGGAGTCACCTAGTGCAG | 3980 fluorescence intensity (a.u.) |
| TTTGGGGCATATGAATTCCACGTGTATTCCAAAATTTCTCCGGAGTCACCTAGTGCAG | 12500 fluorescence intensity (a.u.) |
| AAATGGTTTATTATCTGACTCATACAACATGTGCTGCCAACGGAGTCACCTAGTGCAG | 9160 fluorescence intensity (a.u.) |
| TCTCCCTTTCCAACTCTCCACATCCAAACAGCAGACTAAACGGAGTCACCTAGTGCAG | 28800 fluorescence intensity (a.u.) |
| TCGACATGACATGTTGCGTCACTGCACGAAGCGGAGTGAACGGAGTCACCTAGTGCAG | 4290 fluorescence intensity (a.u.) |
| AGAAGAAAATTAAAGAAACTGACTTGGATAGCACTGCACTCGGAGTCACCTAGTGCAG | 3460 fluorescence intensity (a.u.) |
| CACCTCGTTTTGCGTAAAACACTTGATCTTGATCTTTATCCGGAGTCACCTAGTGCAG | 6540 fluorescence intensity (a.u.) |

2 entries drawn at random from the list so far:

| Sequence | binding signal |
| --- | --- |
| ACAGGTAGCTCCATATCTTGTTCATATTGACATACACAATCGGAGTCACCTAGTGCAG | 31500 fluorescence intensity (a.u.) |
| CTGAAATTAATAGATCTAGTGGTACACGCGGCTTGCATGACGGAGTCACCTAGTGCAG | 3860 fluorescence intensity (a.u.) |
